# Source: PMC9959676 (Molecules, 2023)
# Assay: DPPH free radical scavenging assay
# Conditions: mean absorbance at 517 nm, triplicate; 1.0 mL sample 0.5 mg/mL + 2 mL DPPH 0.2 mg/mL, 30 min
# Procedure: The DPPH assay was carried out to estimate the antioxidant potential among all the compounds [29]. Then, 2 mL (0.2 mg/mL in methyl alcohol) of DPPH was mixed with 1.0 mL (0.5 mg/mL in methyl alcohol) of the sample solution in a test tube. All the reaction tubes were covered with aluminum foil and kept aside for 30 min to complete the reaction. The activity was carried out in a dark room. […] A UV-visible spectrophotometer was employed to observe a reduction in the concentration of free radicals at 517 nm. The absorbance of the control (1.0 mL methanol + 2 mL DPPH solution) was also measured. All samples were evaluated in a triplicate manner, and the mean results were recorded. The standard antioxidant (ascorbic acid) was evaluated and set as a reference/standard. The percentage of inhibition (%) was calculated using the following formula in terms of scavenging activity(S):S (%) = [(Ab − Aa)/Ab] × 100(1) where Ab = Absorbance of control; and Aa = Absorbance of the test sample
row,SMILES,Mean
1,"CCCCC(=O)N(Cc1ccc(-c2ccccc2-c2nn[nH]n2)cc1)C(C(=O)O)C(C)C (stereo not drawn) [AV0, 2-(N-((2′-(2H-tetrazole-5-yl)-[1,1′-biphenyl]-4yl)-methyl)-pentanamido)-3-methyl butanoic acid, reference compound]",0.919
2,"CCCCC(=O)N(Cc1ccc(-c2ccccc2-c2nn[nH]n2)cc1)C(C(=O)OC(C(=O)c1ccccc1)c1ccccc1)C(C)C (stereo not drawn) [AV1, 2-oxo-1,2-diphenylethyl 2-(N-((2′-(2H-tetrazol-5yl)-[1,1′-biphenyl]-4-yl)methyl)pentanamido)-3methyl butanoate]",0.676
3,"CCCCC(=O)N(Cc1ccc(-c2ccccc2-c2nn[nH]n2)cc1)C(C(=O)Oc1ccc(C=O)cc1OC)C(C)C (stereo not drawn) [AV2, 4-formyl-2-methoxyphenyl 2(N-((2′-(2H-tetrazole-5-yl)-[1,1′-biphenyl]-4yl)methyl)pentanamido)-3-methyl butanoate]",0.102
4,"CCCCC(=O)N(Cc1ccc(-c2ccccc2-c2nn[nH]n2)cc1)C(C(=O)Oc1ccc(Cl)cc1Cl)C(C)C (stereo not drawn) [AV5, 2,4-dichlorophenyl 2-(N-((2′-(2H-tetrazol-5yl)-[1,1′-biphenyl]-4 yl)methyl)pentanamido)-3methyl butanoate]",0.696
5,"CCCCC(=O)N(Cc1ccc(-c2ccccc2-c2nn[nH]n2)cc1)C(C(=O)Oc1ccc(C=O)cc1)C(C)C (stereo not drawn) [AV6, 4-formylphenyl2-(N-((2′-(2H-tetrazol-5-yl)-[1, 1′-biphenyl]-4yl)methyl)pentanamido)-3methyl butanoate]",0.613
6,"CCCCC(=O)N(Cc1ccc(-c2ccccc2-c2nn[nH]n2)cc1)C(C(=O)Oc1cc(C)ccc1C(C)C)C(C)C (stereo not drawn) [AV8, 2-isopropyl-5-methylphenyl 2-(N-((2′-(2H-tetrazol-5yl)-[1, 1′-biphenyl]-4 yl)methyl)pentanamido)-3methyl butanoate]",0.120
7,"CCCCC(=O)N(Cc1ccc(-c2ccccc2-c2nn[nH]n2)cc1)C(C(=O)Oc1cccc2ccccc12)C(C)C (stereo not drawn) [AV9, naphthalen-1-yl 2-(N-((2′-(2H-tetrazol-5-yl)-[1,1′-biphenyl]-4 yl)methyl)pentanamido)-3methyl butanoate]",0.419
8,"CCCCC(=O)N(Cc1ccc(-c2ccccc2-c2nn[nH]n2)cc1)C(C(=O)Oc1ccc2ccccc2c1)C(C)C (stereo not drawn) [AV10, naphthalen-2-yl 2-(N-((2′-(2H-tetrazol-5-yl)-[1,1′-biphenyl]-4 yl)methyl)pentanamido)-3methyl butanoate]",0.145
9,"O=C1O[C@H]([C@@H](O)CO)C(O)=C1O [Ascorbic acid, reference compound]",0.093
